The list shows only some results of the screen, not a fair sample: it gathers tests that were run many times, whatever their T/C, doses with no T/C, and many T/C values between a quarter and a half above the control. Other doses and runs of a compound stand elsewhere. T/C is the treated group as % of the vehicle group. Some entries give survivors of the animals treated and no T/C: the source files T/C as zero there, which appears to mark a toxic dose or a test without result, not a measured value. Some survivor counts are full or nearly so, which does not show that the dose was tolerated: the source hardly ever lists a survival T/C far under the control, and the zero likely stands for such cases as well. Counts of survivors are from the toxicity check (mostly the fifth day) where no day follows; animals may have died later. Schedules are NCI's codes, read here as Q, the interval in days (D) or hours (H), X, the number of doses. Some entries hold several experiments; the results are listed from low to high. Marks such as (2×) count equal records among those shown. Where survival is the endpoint, this PubChem deposit counts one and a half times the control or more as active, and values a quarter to a half above the control carry no call in these data; other NCI protocols may use other cut-offs.
Test system: P388 leukemia ip, CD2F1 mice, survival T/C
Test: NCI In Vivo Anticancer Drug Screen. Data for tumor model P388 Leukemia (intraperitoneal) in CD2F1 (CDF1) mice
Details: T/C endpoint: median survival time, higher T/C = longer survival
[1] = dose: 400.0 mg/kg/injection, schedule: Q01DX001 (ip), vehicle: Klucel (hydroxypropylcellulose) (HPC)
[2] = dose: 200.0 mg/kg/injection, schedule: Q01DX005 (ip), vehicle: Klucel (hydroxypropylcellulose) (HPC)
[3] = dose: 50.0 mg/kg/injection, schedule: Q01DX009 (ip), vehicle: saline with Tween-80
[4] = dose: 200.0 mg/kg/injection, schedule: Q01DX005 (ip), vehicle: saline with Tween-80
[5] = dose: 32.0 mg/kg/injection, schedule: Q01DX009 (ip), vehicle: water

**Q.** For O=C(Nc1nnc(-c2cc(=O)c3cc(Cl)ccc3o2)s1)c1ccccc1, which survivor count (dose: 50.0 mg/kg/injection, schedule: Q01DX005 (ip), vehicle: saline with Tween-80) is on record?
**A.** The survivor count was 6 of 6.

**Q.** With CCn1c(Cl)c(/C=N\Nc2ccccc2[N+](=O)[O-])c2ccccc21 as the molecule, how does the survivor count (dose: 50.0 mg/kg/injection, schedule: Q01DX001 (ip), vehicle: Klucel (hydroxypropylcellulose) (HPC)) read?
**A.** Its survivor count is 6 of 6.

**Q.** What about the survivor count (dose: 100.0 mg/kg/injection, schedule: Q01DX001 (ip), vehicle: Klucel (hydroxypropylcellulose) (HPC)) of the same molecule?
**A.** The survivor count was 6 of 6.

**Q.** What about the survivor count (dose: 200.0 mg/kg/injection, schedule: Q01DX001 (ip), vehicle: Klucel (hydroxypropylcellulose) (HPC)) of the same molecule?
**A.** Its survivor count is 6 of 6.

**Q.** And the survivor count [1]?
**A.** The survivor count was 6 of 6.

**Q.** Which T/C (dose: 3.75 mg/kg/injection, schedule: Q01DX005 (ip), vehicle: Klucel (hydroxypropylcellulose) (HPC)) does the source give for c1ccc2c(NCCCN3CCN(CCCNc4c5ccccc5nc5ccccc45)CC3)c3ccccc3nc2c1 here?
**A.** The T/C was 130 % of control.

**Q.** And the T/C (dose: 7.5 mg/kg/injection, schedule: Q01DX005 (ip), vehicle: Klucel (hydroxypropylcellulose) (HPC))?
**A.** The T/C was 127 and 130 % of control.

**Q.** And the survivor count (dose: 15.0 mg/kg/injection, schedule: Q01DX005 (ip), vehicle: Klucel (hydroxypropylcellulose) (HPC))?
**A.** Its survivor count is 5 of 6.

**Q.** What about the survivor count (dose: 30.0 mg/kg/injection, schedule: Q01DX005 (ip), vehicle: Klucel (hydroxypropylcellulose) (HPC)) of the same molecule?
**A.** The survivor count was 5 of 6.

**Q.** What about the survivor count (dose: 60.0 mg/kg/injection, schedule: Q01DX005 (ip), vehicle: Klucel (hydroxypropylcellulose) (HPC)) of the same molecule?
**A.** The survivor count was 3 of 6.

**Q.** What about the survivor count (dose: 120.0 mg/kg/injection, schedule: Q01DX005 (ip), vehicle: Klucel (hydroxypropylcellulose) (HPC)) of the same molecule?
**A.** The survivor count was 0 of 6.

**Q.** And the survivor count (dose: 240.0 mg/kg/injection, schedule: Q01DX005 (ip), vehicle: Klucel (hydroxypropylcellulose) (HPC))?
**A.** Its survivor count is 0 of 6.

**Q.** With CC(C)C1CC(O)C(C)C(CN2CCCCC2)C1 (stereo not drawn) as the molecule, how does the survivor count [2] read?
**A.** Its survivor count is 3 of 6.

**Q.** What does the source list for Cc1cc(-c2ccc(N=Nc3c(C)nn(-c4ccc(S(=O)(=O)O)cc4)c3O)c(C)c2)ccc1N=Nc1ccc(O)c(C(=O)O)c1?
**A.** survivor count [3]: 6 of 6; survivor count (dose: 100.0 mg/kg/injection, schedule: Q01DX009 (ip), vehicle: saline with Tween-80): 6 of 6; survivor count (dose: 200.0 mg/kg/injection, schedule: Q01DX009 (ip), vehicle: saline with Tween-80): 1 of 6

**Q.** What does the source list for O=C1C=CC(=Nc2cccc3c2C(=O)c2ccccc2-3)O1?
**A.** survivor count [4]: 4 of 6; survivor count (dose: 400.0 mg/kg/injection, schedule: Q01DX005 (ip), vehicle: saline with Tween-80): 0 of 6

**Q.** For [Cl][Sn]1([Cl])[N]2CCCCC2C2CCCC[N]21 (stereo not drawn), which survivor count (dose: 400.0 mg/kg/injection, schedule: Q04DX003 (ip), vehicle: saline with Tween-80) is on record?
**A.** The survivor count was 5 of 6.

**Q.** What does the source list for NCC(O)COCc1ccccc1 (stereo not drawn)?
**A.** survivor count (dose: 200.0 mg/kg/injection, schedule: Q01DX001 (ip), vehicle: saline with Tween-80): 0 of 6; survivor count (dose: 200.0 mg/kg/injection, schedule: Q04DX002 (ip), vehicle: saline with Tween-80): 1 of 6; survivor count (dose: 400.0 mg/kg/injection, schedule: Q01DX001 (ip), vehicle: saline with Tween-80): 0 of 6

**Q.** O=C(C[n+]1ccsc1Br)c1ccccc1 was tested. Which survivor count [4] did it give?
**A.** Its survivor count is 0 of 5.

**Q.** [I][Ga]([I])[I] was tested. Which survivor count (dose: 200.0 mg/kg/injection, schedule: Q04DX003 (ip), vehicle: saline sonified) did it give?
**A.** Its survivor count is 5 of 6.

**Q.** What about the survivor count (dose: 400.0 mg/kg/injection, schedule: Q04DX003 (ip), vehicle: saline sonified) of the same molecule?
**A.** Its survivor count is 5 of 6.

**Q.** Which results are given for COc1cccc2c1C(=O)c1c(O)c3c(c(O)c1C2=O)C[C@@](O)(C(C)NCCCO)C[C@@H]3OC1CC(N)C(O)C(C)O1 (stereo partly drawn)?
**A.** T/C (dose: 1.0 mg/kg/injection, schedule: Q01DX009 (ip), vehicle: water): 144 % of control; survivor count [5]: 6 of 6

**Q.** COc1cccc(OCC(=O)O)c1OC was tested. Which survivor count [1] did it give?
**A.** The survivor count was 3 of 6.

**Q.** How did the survivor count (dose: 100.0 mg/kg/injection, schedule: Q04DX002 (ip), vehicle: saline with Tween-80) turn out when C/C(=N\N=C(N)N)c1ccc2c(c1)Cc1ccccc1-2 was run?
**A.** The survivor count was 1 of 6.

**Q.** How did the survivor count (dose: 200.0 mg/kg/injection, schedule: Q01DX009 (ip), vehicle: water) turn out when O=C(CO)N(O)c1ccc(Cl)cc1 was run?
**A.** Its survivor count is 0 of 6.

**Q.** With O=P(Oc1cccc2ccccc12)(N1CC1)N1CC1 as the molecule, how does the T/C [3] read?
**A.** Its T/C is 140 % of control.

**Q.** With CC[C@@]1(O)C[C@H](OC2CC(N)C(O)C(C)O2)c2c(O)c3c(c(O)c2[C@H]1C(=O)OC)C(=O)c1cccc(O)c1C3=O (stereo partly drawn) as the molecule, how does the T/C (dose: 1.5 mg/kg/injection, schedule: Q01DX009 (ip), vehicle: water) read?
**A.** Its T/C is 127 % of control.

**Q.** And the T/C (dose: 3.5 mg/kg/injection, schedule: Q01DX009 (ip), vehicle: water)?
**A.** Its T/C is 130 % of control.

**Q.** And the T/C (dose: 4.0 mg/kg/injection, schedule: Q01DX009 (ip), vehicle: water)?
**A.** Its T/C is 132 % of control.

**Q.** What about the T/C (dose: 5.3 mg/kg/injection, schedule: Q01DX009 (ip), vehicle: water) of the same molecule?
**A.** The T/C was 139 % of control.

**Q.** What about the T/C (dose: 6.25 mg/kg/injection, schedule: Q01DX001 (ip), vehicle: water) of the same molecule?
**A.** Its T/C is 130 % of control.

**Q.** What about the T/C (dose: 8.0 mg/kg/injection, schedule: Q01DX009 (ip), vehicle: water) of the same molecule?
**A.** The T/C was 135 and 145 % of control.

**Q.** And the T/C (dose: 12.0 mg/kg/injection, schedule: Q01DX009 (ip), vehicle: water)?
**A.** The T/C was 141 % of control.

**Q.** What about the T/C (dose: 12.5 mg/kg/injection, schedule: Q01DX001 (ip), vehicle: water) of the same molecule?
**A.** Its T/C is 137 % of control.

**Q.** What about the survivor count (dose: 24.0 mg/kg/injection, schedule: Q01DX009 (ip), vehicle: water) of the same molecule?
**A.** Its survivor count is 4 of 6.

**Q.** And the T/C (dose: 25.0 mg/kg/injection, schedule: Q01DX001 (ip), vehicle: water)?
**A.** Its T/C is 125 % of control.

**Q.** And the survivor count [5]?
**A.** The survivor count was 4 of 6.

**Q.** What about the survivor count (dose: 50.0 mg/kg/injection, schedule: Q01DX001 (ip), vehicle: water) of the same molecule?
**A.** The survivor count was 1 of 6 and 4 of 6.

**Q.** And the survivor count (dose: 100.0 mg/kg/injection, schedule: Q01DX001 (ip), vehicle: water)?
**A.** Its survivor count is 0 of 6 (2×).

**Q.** And the survivor count (dose: 200.0 mg/kg/injection, schedule: Q01DX001 (ip), vehicle: water)?
**A.** The survivor count was 0 of 6.

**Q.** What about the survivor count (dose: 400.0 mg/kg/injection, schedule: Q01DX001 (ip), vehicle: water) of the same molecule?
**A.** Its survivor count is 0 of 6.

**Q.** How did the survivor count (dose: 50.0 mg/kg/injection, schedule: Q01DX009 (ip), vehicle: Klucel (hydroxypropylcellulose) (HPC)) turn out when N#C/C(=C/c1ccco1)c1ccccc1 was run?
**A.** Its survivor count is 1 of 6 and 6 of 6.

**Q.** What about the survivor count (dose: 100.0 mg/kg/injection, schedule: Q01DX009 (ip), vehicle: Klucel (hydroxypropylcellulose) (HPC)) of the same molecule?
**A.** The survivor count was 1 of 6.

**Q.** And the survivor count (dose: 200.0 mg/kg/injection, schedule: Q01DX009 (ip), vehicle: Klucel (hydroxypropylcellulose) (HPC))?
**A.** Its survivor count is 0 of 6.

**Q.** For C=Cn1c([N+](=O)[O-])cnc1/C=C/c1ccc(C(=O)OCCN(CC)CC)cc1, which survivor count (dose: 400.0 mg/kg/injection, schedule: Q04DX002 (ip), vehicle: Klucel (hydroxypropylcellulose) (HPC)) is on record?
**A.** Its survivor count is 0 of 5.

**Q.** Which results are given for C=C(C)[C@H]1Cc2c(ccc3c2O[C@@H]2COc4cc(OC)c(OC)cc4[C@@H]2C3=O)O1?
**A.** survivor count (dose: 12.5 mg/kg/injection, schedule: Q04DX003 (ip), vehicle: saline with Tween-80): 6 of 6; survivor count (dose: 25.0 mg/kg/injection, schedule: Q04DX003 (ip), vehicle: saline with Tween-80): 4 of 6; survivor count (dose: 50.0 mg/kg/injection, schedule: Q04DX003 (ip), vehicle: saline with Tween-80): 0 of 6

**Q.** Which survivor count (dose: 55.0 mg/kg/injection, schedule: Q01DX001 (ip), vehicle: Klucel (hydroxypropylcellulose) (HPC)) does the source give for [Se]=P(N1CCOCC1)(N1CCOCC1)N1CCOCC1 here?
**A.** Its survivor count is 0 of 6.

**Q.** How did the survivor count [2] turn out when COc1ccc(NP2(=O)N(Cc3ccc(Cl)cc3)CCCN2Cc2ccc(Cl)cc2)cc1 was run?
**A.** Its survivor count is 6 of 6.

**Q.** With O=NN(CCS(=O)CCCl)C(=O)NC1CCCCC1 (stereo not drawn) as the molecule, how does the T/C (dose: 50.0 mg/kg/injection, schedule: Q01DX009 (ip), vehicle: water) read?
**A.** Its T/C is 133 % of control.

**Q.** With C[CH2][Sn]([CH2]C)([N](c1ccccn1)c1ccccn1)[N](c1ccccn1)c1ccccn1 as the molecule, how does the T/C (dose: 3.12 mg/kg/injection, schedule: Q01DX005 (ip), vehicle: Klucel (hydroxypropylcellulose) (HPC)) read?
**A.** Its T/C is 128 % of control.

**Q.** What about the survivor count (dose: 50.0 mg/kg/injection, schedule: Q01DX005 (ip), vehicle: Klucel (hydroxypropylcellulose) (HPC)) of the same molecule?
**A.** The survivor count was 3 of 6.

**Q.** What about the survivor count (dose: 100.0 mg/kg/injection, schedule: Q01DX005 (ip), vehicle: Klucel (hydroxypropylcellulose) (HPC)) of the same molecule?
**A.** The survivor count was 0 of 6.

**Q.** And the survivor count [2]?
**A.** Its survivor count is 0 of 6.

**Q.** CC(=O)c1c(OCC(O)CNC(C)C)ccc2c(C)cc(=O)oc12 (stereo not drawn) was tested. Which survivor count [4] did it give?
**A.** The survivor count was 0 of 6.

**Q.** How did the survivor count (dose: 400.0 mg/kg/injection, schedule: Q04DX003 (ip), vehicle: saline) turn out when Cc1ccc(S(=O)(=O)C(c2ccccc2)C(Br)C(=O)c2ccccc2)cc1 (stereo not drawn) was run?
**A.** Its survivor count is 6 of 6.

**Q.** How did the survivor count (dose: 200.0 mg/kg/injection, schedule: Q01DX009 (ip), vehicle: saline) turn out when C=CCCC/C=C/CN1CCOCC1 was run?
**A.** Its survivor count is 6 of 6.

Source: PubChem BioAssay AID330 (DTP/NCI, 2004)
